Data on 2 molecules can be found in doi:10.1101/2020.04.19.049288.

Chains of the proteins cited; added tags and fusions are not shown. Lines headed by an entry give the natural chain unless they say otherwise; changes in a name come on top.
UniProt Q10M12: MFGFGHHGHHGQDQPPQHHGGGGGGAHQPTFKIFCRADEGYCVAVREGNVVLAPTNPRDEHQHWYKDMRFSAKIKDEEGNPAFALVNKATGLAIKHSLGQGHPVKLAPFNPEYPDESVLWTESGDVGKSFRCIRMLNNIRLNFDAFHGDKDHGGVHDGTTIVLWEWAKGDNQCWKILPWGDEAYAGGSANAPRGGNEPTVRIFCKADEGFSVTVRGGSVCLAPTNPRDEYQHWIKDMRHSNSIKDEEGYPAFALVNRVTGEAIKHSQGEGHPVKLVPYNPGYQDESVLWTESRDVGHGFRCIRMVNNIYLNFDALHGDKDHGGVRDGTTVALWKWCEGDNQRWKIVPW
UniProt P93438: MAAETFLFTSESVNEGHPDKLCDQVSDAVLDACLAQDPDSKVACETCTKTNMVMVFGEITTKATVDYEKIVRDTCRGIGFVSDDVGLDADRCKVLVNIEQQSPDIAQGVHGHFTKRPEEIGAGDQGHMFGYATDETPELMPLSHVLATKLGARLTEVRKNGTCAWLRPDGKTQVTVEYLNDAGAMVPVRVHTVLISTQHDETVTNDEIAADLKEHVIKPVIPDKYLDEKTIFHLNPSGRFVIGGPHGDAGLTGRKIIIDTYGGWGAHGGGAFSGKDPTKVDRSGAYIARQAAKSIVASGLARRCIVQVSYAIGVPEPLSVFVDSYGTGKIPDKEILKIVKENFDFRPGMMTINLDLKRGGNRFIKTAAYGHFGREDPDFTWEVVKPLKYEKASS

This test has as its target Osr40c1-cVenus (rice) (UniProt Q10M12). Nature of the test: split reporter.

These are yes or no findings as the source states them, for the method shown. Binding seen in cells or lysates may run through a third protein. A result given as binding can be weak or reduced; the word gives no strength.

In the case of “OsSAM2-nVenus (from UniProt P93438 1-394)”, the binding result was “binds”.

B1: OsSAP8-nVenus (protein, UniProt A3BDI8 1-171)
chain: MEHKETGCQQPEGPILCINNCGFFGSAATMNMCSKCHKEMIMKQEQAKLAASSIDSIVNGGDSGKEPIIAGHAEVAVAQVEVKTLVAQPAEIAGPSEGVTVNPKGREGPNRCSTCRKRVGLTGFNCRCGNLYCAMHRYSDKHDCQFDYRTAARDAIAKANPVVKAEKLDKI
Turning to B1, the binding result is “binds”.
